{"source": "paper PMC7785878", "target": "T1, ANXA6 fused to the C-terminal of yellow fluorescent protein (pEYFP-ANXA6-HA) (UniProt P08133)", "T1 sequence": "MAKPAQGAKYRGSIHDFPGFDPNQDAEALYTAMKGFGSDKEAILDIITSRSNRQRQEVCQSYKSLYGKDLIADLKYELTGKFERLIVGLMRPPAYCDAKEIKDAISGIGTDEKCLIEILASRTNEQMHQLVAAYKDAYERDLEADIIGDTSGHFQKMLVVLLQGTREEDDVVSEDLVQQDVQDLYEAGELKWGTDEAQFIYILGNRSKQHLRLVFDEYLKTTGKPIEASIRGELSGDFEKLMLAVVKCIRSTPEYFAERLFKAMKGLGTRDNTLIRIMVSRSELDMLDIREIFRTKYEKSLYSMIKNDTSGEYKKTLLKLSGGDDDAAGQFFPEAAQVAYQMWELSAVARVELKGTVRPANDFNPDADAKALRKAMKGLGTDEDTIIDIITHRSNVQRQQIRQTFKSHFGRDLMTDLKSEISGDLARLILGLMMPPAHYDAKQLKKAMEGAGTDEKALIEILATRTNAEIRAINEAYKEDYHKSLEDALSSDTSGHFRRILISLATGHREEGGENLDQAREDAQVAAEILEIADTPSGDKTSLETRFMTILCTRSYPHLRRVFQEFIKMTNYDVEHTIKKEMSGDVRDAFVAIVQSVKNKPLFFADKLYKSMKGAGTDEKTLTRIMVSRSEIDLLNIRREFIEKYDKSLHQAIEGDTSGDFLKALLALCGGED", "experiment": "co-IP", "note": "These are yes or no findings as the source states them, for the method shown. In cells and extracts the contact can be indirect. Binding can be weak; no strength is given. Tags and fused reporters may be left off the sequences shown.", "data": [{"substance": "EspF C-terminal (74-248 aa) in pEGFP-N1 with flag tag (pEGFP-EspF/C-flag) (Enterohemorrhagic E. coli O157:H7 EDL933) (domain or fragment)", "values": [{"measurement": "binding", "result": "binds"}]}, {"substance": "EspF N-terminal (1-73 aa) in pEGFP-N1 with flag tag (pEGFP-EspF/N-flag) (Enterohemorrhagic E. coli O157:H7 EDL933) (domain or fragment)", "values": [{"measurement": "binding", "result": "no binding"}]}]}
